± gives the standard deviation of the averaged measurements. The reference is the same well before dosing, and untreated signal decays as well.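 Fibroblast labels name human fibroblasts: mostly primary ones from tissues such as uterus (C12385, HUF), lung (H6013), bone (Hs27A), adrenal (HADF) and skin (WS1), plus mammary HMF and breast cancer-associated Hs343T. The cancer cells are basal-like or mesenchymal-like triple-negative breast cancer lines. The paper calls a changed response a hit when it shifts by more than 3x the replicate standard deviation. The tissue of the other fibroblasts is not given here.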
Test system: HCC1143
Test: relative JC-1 red fluorescence (viability) vs pre-drug, coculture with fibroblast (fraction); higher = more viable cancer cells
Method: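 JC-1 labelled TNBC cells cocultured 1:1 (1,500 cells each) with CellTrace Violet stained primary or stromal fibroblasts in 384-well plates in FluoroBrite medium, treated with one of 42 anticancer drugs at 0.1, 1, 10 or 100 uM. JC-1 red fluorescence (mitochondrial integrity in cancer cells only) was read by plate reader every 8 h for 72 h. Values are normalised to each well's pre-drug value. The stock of one drug was tenfold lower, so its dose labels may be too high.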

CS(=O)(=O)CCNCc1ccc(-c2ccc3ncnc(Nc4ccc(OCc5cccc(F)c5)c(Cl)c4)c3c2)o1 [Lapatinib]
relative JC-1 red fluorescence
Conditions	8 h	16 h	24 h	32 h	40 h	48 h	56 h	64 h	72 h
10 µM, coculture fibroblast: C12385	0.858 ± 0.024	0.775 ± 0.013	0.69 ± 0.024	0.591 ± 0.022	0.51 ± 0.017	0.4664 ± 0.0029	0.449 ± 0.0053	0.451 ± 0.0063	0.455 ± 0.017
10 µM, coculture fibroblast: H6013	0.757 ± 0.012	0.6375 ± 0.0059	0.573 ± 0.013	0.553 ± 0.042	0.462 ± 0.055	0.446 ± 0.051	0.417 ± 0.056	0.412 ± 0.054	0.452 ± 0.034
10 µM, coculture fibroblast: H6019	0.853 ± 0.013	0.801 ± 0.0098	0.7918 ± 0.0039	0.728 ± 0.0099	0.683 ± 0.0084	0.6526 ± 0.0033	0.628 ± 0.0019	0.6132 ± 0.0036	0.5826 ± 0.0031
10 µM, coculture fibroblast: H6076	0.8497 ± 0.0084	0.858 ± 0.064	0.819 ± 0.049	0.7356 ± 0.0012	0.7398 ± 0.0056	0.733 ± 0.016	0.718 ± 0.048	0.711 ± 0.063	0.713 ± 0.07
10 µM, coculture fibroblast: H6231	0.824 ± 0.019	0.8738 ± 0.0022	0.808 ± 0.0092	0.59279 ± 0.00043	0.702 ± 0.0096	0.665 ± 0.017	0.652 ± 0.04	0.643 ± 0.043	0.642 ± 0.053
10 µM, coculture fibroblast: HADF	0.706 ± 0.0061	0.6167 ± 0.0023	0.5754 ± 0.0025	0.597 ± 0.01	0.468 ± 0.012	0.434 ± 0.011	0.407 ± 0.018	0.39 ± 0.016	0.459 ± 0.023
10 µM, coculture fibroblast: HCFa	0.764 ± 0.018	0.668 ± 0.025	0.64 ± 0.024	0.65 ± 0.042	0.562 ± 0.037	0.536 ± 0.041	0.517 ± 0.043	0.509 ± 0.048	0.584 ± 0.046
10 µM, coculture fibroblast: HCPF	0.8214 ± 0.0044	0.916 ± 0.019	0.8661 ± 0.0016	0.648 ± 0.032	0.7602 ± 0.0046	0.723 ± 0.014	0.673 ± 0.019	0.642 ± 0.024	0.638 ± 0.023
10 µM, coculture fibroblast: HHSteC	0.792 ± 0.029	0.695 ± 0.052	0.671 ± 0.064	0.662 ± 0.082	0.566 ± 0.089	0.545 ± 0.084	0.513 ± 0.093	0.499 ± 0.087	0.524 ± 0.086
10 µM, coculture fibroblast: HMF	0.861 ± 0.032	0.929 ± 0.026	0.882 ± 0.019	0.756 ± 0.012	0.8164 ± 0.0031	0.7946 ± 0.0044	0.7823 ± 0.0064	0.76995 ± 0.00076	0.762 ± 0.0059
10 µM, coculture fibroblast: HPFa	0.916 ± 0.035	0.841 ± 0.028	0.781 ± 0.042	0.706 ± 0.038	0.659 ± 0.04	0.632 ± 0.059	0.616 ± 0.06	0.604 ± 0.034	0.592 ± 0.035
10 µM, coculture fibroblast: HUF	0.934 ± 0.019	0.877 ± 0.032	0.84 ± 0.025	0.7778 ± 0.0014	0.774 ± 0.056	0.76 ± 0.088	0.739 ± 0.11	0.723 ± 0.11	0.697 ± 0.11
10 µM, coculture fibroblast: Hs5	0.869 ± 0.022	0.901 ± 0.018	0.839 ± 0.021	0.783 ± 0.049	0.734 ± 0.059	0.702 ± 0.049	0.675 ± 0.051	0.652 ± 0.031	0.653 ± 0.021
10 µM, coculture fibroblast: Hs27A	0.6994 ± 0.0014	0.6086 ± 0.0058	0.539 ± 0.0077	0.554 ± 0.013	0.394 ± 0.0017	0.355 ± 0.015	0.333 ± 0.022	0.311 ± 0.014	0.409 ± 0.02
10 µM, coculture fibroblast: Hs343T	0.8496 ± 0.0068	0.931 ± 0.011	0.879 ± 0.016	0.744 ± 0.028	0.771 ± 0.033	0.736 ± 0.014	0.689 ± 0.03	0.688 ± 0.025	0.675 ± 0.028
10 µM, coculture fibroblast: WS1	0.866 ± 0.03	0.835 ± 0.068	0.833 ± 0.1	0.803 ± 0.14	0.798 ± 0.15	0.774 ± 0.16	0.763 ± 0.19	0.728 ± 0.19	0.716 ± 0.21
100 µM, coculture fibroblast: C12385	0.853 ± 0.019	0.774 ± 0.032	0.7 ± 0.034	0.643 ± 0.048	0.586 ± 0.056	0.545 ± 0.062	0.516 ± 0.066	0.482 ± 0.066	0.46 ± 0.064
100 µM, coculture fibroblast: H6013	0.719 ± 0.027	0.651 ± 0.018	0.599 ± 0.027	0.58 ± 0.023	0.494 ± 0.021	0.476 ± 0.018	0.454 ± 0.0097	0.433 ± 0.0091	0.413 ± 0.0048
100 µM, coculture fibroblast: H6019	0.841 ± 0.0088	0.79 ± 0.019	0.758 ± 0.038	0.714 ± 0.031	0.687 ± 0.033	0.672 ± 0.029	0.628 ± 0.0095	0.593 ± 0.0089	0.574 ± 0.015
100 µM, coculture fibroblast: H6076	0.8154 ± 0.0058	0.786 ± 0.0083	0.757 ± 0.009	0.7396 ± 0.003	0.69047 ± 0.00025	0.685 ± 0.01	0.667 ± 0.0081	0.654 ± 0.0036	0.6681 ± 0.0015
100 µM, coculture fibroblast: H6231	0.832 ± 0.029	0.818 ± 0.055	0.725 ± 0.057	0.5929 ± 0.0016	0.622 ± 0.06	0.591 ± 0.057	0.55 ± 0.06	0.516 ± 0.05	0.498 ± 0.038
100 µM, coculture fibroblast: HADF	0.771 ± 0.029	0.673 ± 0.028	0.636 ± 0.03	0.638 ± 0.036	0.553 ± 0.038	0.54 ± 0.043	0.51 ± 0.047	0.489 ± 0.051	0.469 ± 0.057
100 µM, coculture fibroblast: HCFa	0.8 ± 0.028	0.691 ± 0.021	0.648 ± 0.024	0.621 ± 0.017	0.531 ± 0.02	0.5 ± 0.013	0.446 ± 0.013	0.414 ± 0.011	0.396 ± 0.011
100 µM, coculture fibroblast: HCPF	0.841 ± 0.027	0.918 ± 0.094	0.903 ± 0.11	0.713 ± 0.065	0.84 ± 0.16	0.809 ± 0.16	0.768 ± 0.16	0.742 ± 0.16	0.718 ± 0.17
100 µM, coculture fibroblast: HHSteC	0.8383 ± 0.0014	0.772 ± 0.017	0.737 ± 0.026	0.703 ± 0.04	0.641 ± 0.04	0.617 ± 0.045	0.572 ± 0.055	0.543 ± 0.062	0.499 ± 0.072
100 µM, coculture fibroblast: HMF	0.807 ± 0.012	0.834 ± 0.004	0.7894 ± 0.0076	0.729 ± 0.032	0.71 ± 0.037	0.691 ± 0.04	0.652 ± 0.065	0.62 ± 0.062	0.61 ± 0.068
100 µM, coculture fibroblast: HPFa	0.829 ± 0.19	0.909 ± 0.012	0.858 ± 0.046	0.871 ± 0.047	0.782 ± 0.017	0.778 ± 0.026	0.818 ± 0.088	0.7334 ± 0.00083	0.768 ± 0.099
100 µM, coculture fibroblast: HUF	0.867 ± 0.025	0.783 ± 0.01	0.728 ± 0.011	0.6588 ± 0.0037	0.617 ± 0.0095	0.587 ± 0.011	0.5414 ± 0.0032	0.5201 ± 0.00097	0.486 ± 0.0052
100 µM, coculture fibroblast: Hs5	0.844 ± 0.031	0.86 ± 0.097	0.836 ± 0.095	0.792 ± 0.074	0.739 ± 0.083	0.692 ± 0.08	0.66 ± 0.071	0.635 ± 0.065	0.628 ± 0.057
100 µM, coculture fibroblast: Hs27A	0.757 ± 0.01	0.6828 ± 0.0065	0.643 ± 0.013	0.661 ± 0.014	0.533 ± 0.022	0.508 ± 0.026	0.478 ± 0.026	0.451 ± 0.024	0.459 ± 0.038
100 µM, coculture fibroblast: Hs343T	0.8345 ± 0.008	0.85 ± 0.017	0.826 ± 0.024	0.7637 ± 0.0018	0.7275 ± 0.0017	0.7033 ± 0.0068	0.667 ± 0.0081	0.6269 ± 0.00073	0.6029 ± 0.0044
100 µM, coculture fibroblast: WS1	0.8563 ± 0.0056	0.773 ± 0.05	0.754 ± 0.075	0.681 ± 0.081	0.635 ± 0.1	0.599 ± 0.095	0.57 ± 0.096	0.546 ± 0.096	0.523 ± 0.096
